{
  "source": "patent US20170290814A1",
  "about": "“METHODS OF TREATMENT OF CHOLESTASIS AND FIBROSIS” (GENFIT, priority 2016, published 2017)",
  "system": "CCl4-induced levels of circulating TBA concentration",
  "experiment": "CCl4-induced liver injury model, circulating total bile acids",
  "assay_type": "in vivo, rat",
  "conditions": "rats, CCl4 i.p. twice weekly for 3 weeks, NTZ in diet 10 or 30 mg/kg/day",
  "note": "“Also recorded” adds a separate entry of the source. At least one structure is not confirmed: it was looked up by name or label, or the drawing left a doubt.",
  "data": [
    {"smiles": "CC(=O)Oc1ccccc1C(=O)Nc1ncc([N+](=O)[O-])s1", "note": "[NTZ, [2-[(5-nitro-1,3-thiazol-2-yl)carbamoyl]phenyl]ethanoate]", "values": [
      {"measurement": "circulating total bile acid (TBA) concentration", "result": "prevented the pathological increase; also recorded: reduce"},
      {"measurement": "circulating total bile acid (TBA) concentration", "setting": "listed as Nitazoxanide", "result": "prevents"}
    ]}
  ]
}
